These results are taken from PMC3534021, “Structure of the TPR Domain of AIP: Lack of Client Protein Interaction with the C-Terminal α-7 Helix of the TPR Domain of AIP Is Sufficient for Pituitary Adenoma Predisposition” (PLoS ONE, 2012).

The series has as its system AIP TPR-domain E192R mutant. The experiment in a line: Isothermal titration calorimetry, E192R AIP TPR-domain. Format: binding, human. To be noted: ITC. On the procedure:
The TPR domain (residues 166–330) of human AIP was expressed as a PreScission cleavable His-tagged protein from pTWO-E (pET-17b derived; personal communication, A. W. Oliver, Sussex University). The TPR domain was purified by talon-affinity chromatography (Clontech, Oxford, UK), then concentrated and desalted on a HIPrep 26/10 desalting column equilibrated in 20 mM Tris pH 7.5 containing 1 mM EDTA. The sample was then cleaved overnight with GST-tagged PreScision protease. The cleaved protein was subsequently passed through a GST column equilibrated in 20 mM Tris pH 7.5, 1 mM EDTA and 150 mM NaCl and then through a second Talon column to remove any remaining uncleaved protein. The flow through was then concentrated and subjected to superdex 75HR gel-filtration chromatography equilibrated in 20 mM Tris pH 7.5, 1 mM EDTA, 1 mM DTT and 500 mM NaCl. Pure TPR domain were concentrated and then desalted on a HIPrep 26/10 column equilibrated in 20 mM Tris pH 7.5 containing 1 mM EDTA. The protein was stored frozen at 2 mg ml^−1.
The heat of interaction was measured on an ITC200 microcalorimeter (Microcal), with a cell volume of 200 µL, under the same buffer conditions (20 mM Tris, pH 7.5, containing 5 mM NaCl) at 30°C. Twenty 1.9 µL aliquots of AIP TPR-domain at 350 µM were injected into 30 µM of human HSP90β. For peptide interactions twenty 1.9 µL aliquots of peptide ranging from 350 to 600 µM were injected into 30 µM of AIP TPR-domain. Heats of dilution were determined in a separate experiment by diluting protein or peptide into buffer, and the corrected data were fitted using a non-linear least-squares curve-fitting algorithm (Microcal Origin) with three floating variables: stoichiometry, binding constant and change in enthalpy of interaction. ATPase assays were previously described [44]–[46].

“FL-hHSP90β: full-length human HSP90β chaperone protein” gave a ΔH of -4.114 kcal/mol and a ΔS of 9.11 Cal/mol/deg. Also, the “N (stoichiometry)” value (AIP-TPR-E192R:HSP90β) is reported as 0.47.
